Assay results published in PubChem BioAssay AID504834 (National Center for Advancing Translational Sciences (NCATS), 2011).
Hit rate of the full screen: of about 320,000 compounds, about 22,000 (6.9%) were called active. The shares of active, inactive and inconclusive entries below differ from those in the screen. The call rests on the fitted dose curve; in most records, active means well fitted inhibition curve with a large enough effect; inconclusive means small, poorly fitted or top-dose-only effect, or another doubt; inactive means no such curve, though single readings can be large or run the other way. Potencies of inconclusive entries are doubtful fits and often do not repeat.

Test: Primary qHTS for delayed death inhibitors of the malarial parasite plastid, 96 hour incubation
Settings: P. falciparum luciferase reporter growth; series mostly up to 28.7 µM
Summary of the method: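 Two-generation exposure (96 h) targets delayed-death phenotype. Reporter parasites carrying integrated firefly luciferase, in red cells at 2% hematocrit and 0.05% parasitemia final, kept at 37 C, 5% CO2; luminescence loss indicates inhibition.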
Potency means the concentration at half of the fitted maximal effect.

Row | Structure (SMILES) | Potency
1 | Cc1cccc(CSc2nnc(-c3ccccn3)n2N)c1 | inconclusive: 0.0522 µM [inhibitor, full curve, poor fit]
2 | CCOC(=O)N1CCC(N2CCN(c3ccccc3)CC2)CC1 | inconclusive: 14.7 µM [inhibitor, single point]
3 | COc1cccc2c1cc1c(=O)n(CC(=O)NCCCc3ccccc3)nc(C)n12 | inconclusive: 18.5 µM [inhibitor, single point]
4 | O=C1CCC2S/C(=C/Nc3ccc(C(F)(F)F)cc3)C(=O)N12 (configuration not stated) | inconclusive: 1.17 µM [inhibitor, full curve, poor fit]
5 | Cc1ccc(S(=O)(=O)N2CCN(C(=O)CSc3ccccn3)CC2)c(C)c1 | inconclusive: 18.5 µM [inhibitor, single point]
6 | COc1cc2nc(CN3CCN(S(=O)(=O)c4ccccc4)CC3)[nH]c(=O)c2cc1OC | inconclusive: 10.4 µM [inhibitor, single point]
7 | c1cncc(Nc2c3ccccc3nc3ccccc23)c1 | inactive
8 | Cc1cccc(Nc2nc(-c3ccc(O)c(O)c3)cs2)n1 | inconclusive: 18.5 µM [inhibitor, single point]
9 | Cc1ccc(CSc2nc3ccncc3n2CC(=O)Nc2cc(C)cc(C)c2)cc1 | inconclusive: 10.4 µM [inhibitor, single point]
10 | O=c1[nH]nc(Cc2ccc(-c3cccc(Cl)c3)o2)c2ccccc12 | inactive
11 | Cc1cccc(C(=O)NNC(=O)CCn2nnc3ccccc32)c1 | inconclusive: 2.94 µM [inhibitor, single point]
12 | COc1ccc(C(=O)NC(=S)NCCc2ccccc2)cc1 | inactive
13 | CCC1=NN2C(=N)/C(=C/c3ccc(OS(=O)(=O)c4ccccc4)cc3)C(=O)N=C2S1 | inconclusive: 18.5 µM [inhibitor, single point]
14 | CC(=O)c1cccc(-c2csc(N3CCC(C(N)=O)CC3)n2)c1 | inconclusive: 7.38 µM [activator, partial curve]
15 | CC(C)c1ccc(NC(=O)[C@H](Cc2c[nH]c3ccccc23)NC(=O)[C@@H]2Cc3ccccc3CN2)cc1 | inconclusive: 18.5 µM [inhibitor, single point]
16 | Cn1c(NC(=S)Nc2ccccc2)nc2ccccc21 | inconclusive: 5.86 µM [inhibitor, partial curve]
17 | Cc1cc(=O)oc2c3c(cc(OCC(=O)NCc4ccncc4)c12)OC(C)(C)CC3 | active: 10.4 µM
18 | C/C(=N\NC(=O)c1cccc(S(=O)(=O)N2CCCC2)c1)c1ccco1 | inactive
19 | COc1ccc(-c2c(C#N)c(SCC(N)=O)nc3c2CCCC3)cc1 | inconclusive: 18.5 µM [inhibitor, single point]
20 | CN(CC(=O)Nc1ccc(OC(F)(F)F)cc1)C(=O)Cn1c(=O)cnc2ccccc21 | inconclusive: 18.5 µM [inhibitor, single point]
21 | COc1cccc(CNc2ncc(C(=O)Nc3cc(OC)c(OC)c(OC)c3)c(C)n2)c1 | inconclusive: 0.928 µM [inhibitor, full curve, poor fit]
22 | CCOc1cc(N2CCOCC2)c(OCC)cc1NC(=O)CSc1ncn[nH]1 | inconclusive: 2.08 µM [inhibitor, single point]
23 | CCCN1C(=O)/C(=C2\SC(N3CCCCC3)=NC2=O)c2ccccc21 | inconclusive: 18.5 µM [inhibitor, single point]

Row | Structure (SMILES) | Potency
24 | Cc1cc(C)c(S(=O)(=O)ON2C(=O)c3ccccc3C2=O)cc1C | inactive
25 | O=C(Nc1cccc(-c2ccc3nncn3n2)c1)c1ccco1 | inconclusive: 9.28 µM [inhibitor, single point]
26 | Cc1c(/C=C2\SC(=Nc3cccc(C(=O)O)c3)NC2=O)c2ccccc2n1C | inactive
27 | COc1ccc(-n2cnc3cc(N)ccc32)cc1 | inconclusive: 18.5 µM [inhibitor, single point]
28 | COc1ccc2cc(S(=O)(=O)Nc3ccccn3)ccc2c1 | inconclusive: 9.28 µM [inhibitor, partial curve, poor fit]
29 | NS(=O)(=O)c1ccc(CNC(=O)c2cc(-c3cccnc3)nc3ccc(Br)cc23)cc1 | inconclusive: 11.7 µM [inhibitor, single point]
30 | COCC(=O)N1CCC(Oc2ccc(C(=O)N3C[C@H]4CC[C@H]3C4)cc2)CC1 | inconclusive: 14.7 µM [inhibitor, single point]
31 | Cc1cc(Cl)ccc1OC(C)c1nnc(N)s1 (configuration not stated) | inconclusive: 16.5 µM [inhibitor, single point]
32 | CC(C)=C1SC(N2CCN(c3ccc(Cl)cc3)CC2)=NC1=O | inactive
33 | CCCNC(=S)Nc1ccc(Cl)cc1C | inconclusive: 0.465 µM [inhibitor, full curve, poor fit]
34 | Cc1csc(SCC(=O)Nc2ccc(C)c(F)c2)n1 | inconclusive: 0.0928 µM [inhibitor, full curve, poor fit]
35 | CCOc1ccc2oc(C(=O)NC3CCN(Cc4ccccc4)CC3)c(C)c2c1 | inconclusive: 18.5 µM [inhibitor, single point]
36 | COc1ccc2c(c1)c(CC(=O)Nc1cccc(S(N)(=O)=O)c1)c(C)n2C(=O)c1ccc(Cl)cc1 | inconclusive: 18.5 µM [inhibitor, single point]
37 | CCN1C(=O)CSc2ccc(C(=O)NCc3ccccc3)cc21 | inconclusive: 18.5 µM [inhibitor, single point]
38 | CC(=O)c1c(-c2ccccc2)c2cc(Cl)ccc2[nH]c1=O | inconclusive: 0.0026 µM [inhibitor, full curve, poor fit]
39 | Cc1cccc(N2CCN(C(=O)c3ccc(N4CCCC4=O)cc3)CC2C)c1 (configuration not stated) | inconclusive: 16.5 µM [inhibitor, partial curve, poor fit]
40 | COc1ccc(Cl)cc1S(=O)(=O)Nc1ccc2c(c1)n(C)c(=O)n2C | inactive
41 | Nc1nc(-c2ccc3c(c2)CCCC3)c(CC(=O)O)s1 | inactive
42 | Cc1cc(=O)n2nc(N3CCCC(C(=O)N4CCOCC4)C3)sc2n1 (configuration not stated) | active: 11.7 µM
43 | O=C(c1ccco1)N1CCN(S(=O)(=O)c2cccc([N+](=O)[O-])c2)CC1 | inconclusive: 16.5 µM [inhibitor, single point]
44 | CC(Cc1ccccc1)NC(=O)c1ccc([N+](=O)[O-])cc1 (configuration not stated) | inconclusive: 18.5 µM [inhibitor, single point]
45 | Cc1ncc(CSSCc2cnc(C)c(O)c2CO)c(CO)c1O | inactive
46 | O=C(N/N=C/c1c(F)c(F)c(F)c(F)c1F)c1ccc(Cn2cc(Br)cn2)o1 | inconclusive: 9.28 µM [inhibitor, partial curve, poor fit]

Row | Structure (SMILES) | Potency
47 | CC(=O)C1=C(c2cccc([N+](=O)[O-])c2)N(C(C)=O)n2c(C)nnc2S1 | inconclusive: 9.28 µM [inhibitor, single point]
48 | O=C(NC(Cc1ccccc1)C(=O)O)/C(=C\c1ccco1)NC(=O)c1ccccc1 (configuration not stated) | active: 2.62 µM
49 | Cc1nnc(Nc2ccc(C(=O)N3CCOCC3)cc2)c2ccccc12 | inconclusive: 18.5 µM [inhibitor, single point]
50 | OCCNc1nc(Nc2ccc(Br)cc2)nc2ccccc12 | inconclusive: 18.5 µM [inhibitor, single point]
51 | O=c1c2ccccc2nc(/C=C/c2cccnc2)n1Cc1ccccc1 | inactive
52 | Cc1ccc(NC(=S)N/N=C/c2c(Cl)cccc2Cl)c(C)c1 | inconclusive: 18.5 µM [inhibitor, single point]
53 | COc1ccc(C(=O)CNc2ccccc2Br)cc1 | inconclusive: 9.28 µM [inhibitor, single point]
54 | CCOc1ccc(/C=N/NC(=O)CN2CCSCC2)cc1 | inconclusive: 18.5 µM [inhibitor, single point]
55 | COc1ccccc1S(=O)(=O)Nc1cccc(-c2nnc3n2CCCCC3)c1 | inconclusive: 18.5 µM [inhibitor, single point]
56 | CC1(C)Oc2ccc(C(=O)Nc3ccccc3)cc2N(CC#N)C1=O | active: 2.94 µM
57 | Cc1ccccc1NC(=S)N1CCOCC1 | inconclusive: 18.5 µM [inhibitor, single point]
58 | COc1ccc(S(=O)(=O)Nc2c(C(=O)O)[nH]c3ccc(OC)cc23)c(OC)c1 | inactive
59 | COC(=O)c1[nH]c2ccc(C)cc2c1NC(=O)CN1CCN(c2ccc(F)cc2)CC1 | inconclusive: 8.28 µM [inhibitor, partial curve]
60 | COc1ccc(C(=O)N2CC=C(c3ccccc3)CC2)cc1S(=O)(=O)N1CCOCC1 | inactive
61 | COc1ccccc1-c1noc(CCC(=O)Nc2cccc(C(F)(F)F)c2)n1 | inconclusive: 18.5 µM [inhibitor, single point]
62 | Cc1ccc2nc(C(F)(F)F)c(C#N)c(N)c2c1 | inconclusive: 18.5 µM [inhibitor, single point]
63 | CC(c1ccco1)N(C(=O)c1cccc(Br)c1)c1ccccn1 (configuration not stated) | inactive
64 | O=C(CN(C(=O)Cn1nnc(-c2ccccc2F)n1)c1cnc2ccccc2c1)NCC1CCCO1 (configuration not stated) | inconclusive: 10.4 µM [inhibitor, partial curve, poor fit]
65 | CCCCN1CNC(=S)N(CCc2ccc(OCC)c(OCC)c2)C1 | inconclusive: 4.15 µM [inhibitor, full curve]
66 | C=CCN(c1ccccc1)S(=O)(=O)c1cccc(C(=O)Nc2nc3ccccc3[nH]2)c1 | inconclusive: 11.7 µM [inhibitor, single point]
67 | CCCC(=O)N1c2ccccc2C(=C2SC(C(=O)OC)=C(C(=O)OC)S2)C(=S)C1(C)C | inactive

In a second layout: results already given
CCCCN1CNC(=S)N(CCc2ccc(OCC)c(OCC)c2)C1
  Potency: inconclusive: 4.15 µM [inhibitor, full curve]
C=CCN(c1ccccc1)S(=O)(=O)c1cccc(C(=O)Nc2nc3ccccc3[nH]2)c1
  Potency: inconclusive: 11.7 µM [inhibitor, single point]
CCCC(=O)N1c2ccccc2C(=C2SC(C(=O)OC)=C(C(=O)OC)S2)C(=S)C1(C)C
  Potency: inactive
